Some entries share one result that the patent states for a list of compounds. Numbered stars: 1 amine (or outer) side, 2 acyl side, 3 side chain; on linkers, the order of the positions; unused ones are H or OH. Bridge positions count the residues as written; N and C are the ends. Square brackets hold non-standard residues; d marks the D form. Peptide text beside a SMILES is read from it. ξ: configuration not given here. X3 = O=C([C@@H]1C[C@@H](CO)CN1[*:1])[*:2]; X2 = C[C@@H]1CC[C@@H](C(=O)[*:2])N1[*:1]; Pro(4R-Me) = C[C@H]1CN[C@H](C(=O)O)C1; d(cisHyp) = O=C(O)[C@H]1C[C@@H](O)CN1; Hyp = O=C(O)[C@@H]1C[C@@H](O)CN1; dHyp = O=C(O)[C@H]1C[C@H](O)CN1; Ile(3ξ) = CCC(C)[C@H](N)C(=O)O; hSer = N[C@@H](CCO)C(=O)O
Experiments:
[1] = test system: rats with dry eye syndrome (extraorbital lacrimal gland excision, ELGE); assay: Amount of tear secretion (Schirmer test, cobalt chloride paper) in ELGE rats with dry eye syndrome; type: in vivo, rat; details: study of YDE-001 to YDE-028; 3% solution as printed
Excerpt: (§1) In order to evaluate the eye protection effect on dry eye syndrome by YDE-001 to YDE-028 prepared in Example 1, a total of 320 Sprague-Dawley-type male rats (OrientBio, Seungnam, Korea) were adapted for 7 days. Thereafter, dry eye syndrome was induced in 264 test rats through extraorbital lacrimal gland excision (hereinafter, ELGE). 8 test rats without the eye abnormality were subjected to a sham operation as a control group.
(§2) The rat was systemically anesthetized by inhaling a mixed gas of 2% to 3% of isoflurane (Hana Pharm. Co., Hwasung, Korea), 70% of N2O, and 28.6% of O2 using a rodent anesthesia machine (Surgivet, Waukesha, Wis., USA) and a ventilator (Model 687, Harvard Apparatus, Cambridge, UK). Thereafter, the extraorbital lacrimal gland located in the subdermal area above the masseter muscle and […] was excised through a transverse incision in a size of 10 mm on the anterior part of the left ear tragus. The skin was sutured by a general method. […] After 6 days from the ELGE operation, it was checked through the Schirmer test by measuring the amount of tear secretion whether dry eye syndrome had been induced. Meanwhile, each rat of the control group with the sham operation was checked for the presence and location of the extraorbital lacrimal gland through a skin incision, and the skin was then sutured without the excision thereof (FIG. 4).
(§3) In addition, in order to evaluate the eye protection effect on dry eye syndrome by YDE-029 to YDE-043 prepared in Example 1, a total of 200 Sprague-Dawley-type male rats (OrientBio, Seungnam, Korea) were adapted for 7 days. Dry eye syndrome was induced in 165 test rats through the ELGE. 8 test rats without the eye abnormality were subjected to the sham operation as a control group. The ELGE was carried out as described above.
(§4) For YDE-001 to YDE-028, YY-102 and the 28 YDE-series were each dissolved in physiological saline at a concentration of 3 mg/ml and administered at a dose of 5 μl/eye at 9:30 am and 3:30 pm daily for 14 days after 7 days from the ELGE operation for a total of 28 times. The DS solution was dissolved in physiological saline at a concentration of 30 mg/ml and administered at a dose of […] twice a day for 14 days after 7 days from the ELGE operation for a total of 28 times. For the sham control and the ELGE control groups, the same stimulation as the administration was applied. In order to prevent excessive eye dryness, the same volume of physiological saline was applied in the same manner in place of the test substances.
as §4, with “Further, for YDE-029 to YDE-043,” for “For YDE-001 to YDE-028,”, “YDE-029 to YDE-043, YY-102 and” for “YDE-001 to YDE-028, YY-102 and”, “and the 15 YDE-series were” for “and the 28 YDE-series were”, “the test substances (FIG. 7).” for “the test substances.”
After 6 days from the ELGE surgery, the changes in the amount of tear secretion were measured at day 7 and day 14 after the administration of YDE-001 to YDE-043. The amount of tear secretion was measured by the […] travel distance of tears absorbed by cobalt chloride paper in a size of 1×15 mm (Toyo Roshi Kaisha, Japan).
The cobalt chloride paper was placed in the lateral canthus of a rat for 60 seconds to absorb tears (FIG. 9). The length of the area absorbed from the corner of the cobalt chloride paper was measured with an electronic digital caliper (Mytutoyo, Tokyo, Japan) (FIG. 8).

[2] = test system: cornea of rats with dry eye syndrome (ELGE); assay: Corneal permeability of fluorescent dye (corneal damage) in ELGE rats with dry eye syndrome; type: in vivo, rat; details: study of YDE-001 to YDE-028; 3% solution as printed
Excerpt: as §1, §2, §3, §4
as §4, with “Further, for YDE-029 to YDE-043,” for “For YDE-001 to YDE-028,”, “YDE-029 to YDE-043, YY-102 and” for “YDE-001 to YDE-028, YY-102 and”, “and the 15 YDE-series were” for “and the 28 YDE-series were”, “the test substances (FIG. 7).” for “the test substances.”
After YDE-001 to YDE-028 were each administered to the eyes […], the changes in the corneal permeability were checked.
In order to measure the corneal permeability, Zolethyl 50™ (Virbac Lab., Carros, France), an animal anesthetic, was intraperitoneally injected at a dose of 25 mg/kg. Thereafter, saline containing a 1% (v/v) fluorescent solution (fluorescein sodium salt, Tokyo Kasei Kogyo Co., Tokyo, Japan) was applied to the eyes at a dose of 5 μl/eye. The eyes thus treated were closed and fixed with a tape. After 1 hour, the remaining fluorescent solution was removed using a cotton swab (FIG. 12). […]

[3] = test system: human primary corneal epithelial cells; assay: Cell growth rate of human primary corneal epithelial cells (CellTiter-Glo); type: cell-based; details: 48 hours and 72 hours
Experimental: In order to confirm whether the YDE derivatives could recover corneal damage, the cellular growth rate of human primary corneal epithelial cells was checked.
Specifically, primary corneal epithelial cells (ATCC, ATCC PCS-700-010) were seeded on a 96-well culture plate (Perkin Elmer, 6005680) containing the Corneal Epithelial Cell Basal Medium (ATCC, ATCC PCS-700-030) in the Corneal Epithelial Cell Growth Kit (ATCC, ATCC PCS-700-040) in an amount of 5×10^3 cells per well, which was then cultured for 24 hours under the conditions of 37° C. and 5% CO2.
YDE-001 to YDE-075 were each dissolved in 100% DMSO (Sigma, D2660) to a concentration of 10 mM, which was then diluted with 100% DMSO to a concentration of the compound of 6, 1.9, 0.6, 0.2, 0.06, 0.02, 0.006, and 0.002 mM. 20 μl of the diluted YDE derivative was added to a 96-well microplate (Greiner Bio-One, 651201) containing 380 μl of the Corneal Epithelial Cell Basal Medium such that the concentration of DMSO was diluted to 5%.
After 24 hours, 20 μl of each of the YDE derivatives diluted in the 96-well microplate was added to the 96-well culture plate containing the cells. As a control group, hEGF (Sigma, E9644) was treated at the same concentration as the YDE derivatives. The cells treated with the YDE-derivatives or hEGF were cultured for 48 hours and 72 hours under the conditions of 37° C. and 5% CO2 (FIGS. 18 to 25).
The cultured cells were treated with the CellTiter-Glo luminescent reagent (Promega, G7573) according to the manufacturer's instructions and reacted for 30 minutes at room temperature. Thereafter, the fluorescent signal (or luminescence signal) was checked using an Envision 2014 Multi-label plate reader. The measured values were normalized using a vehicle control (100% proliferation cell).

Compound	Increase of amount of tear secretion as compared with the DS reference group [1]	Decrease of permeability of the fluorescent dye as compared with the DS reference group [2]	Concentrations at which cell proliferation was observed [3]
CC(C)C[C@H](NC(=O)CNC(=O)[C@H](CCC(=O)O)NC(=O)[C@H](CCC(N)=O)NC(=O)CNC(=O)[C@@H]1C[C@@H](O)CN1)C(=O)N[C@@H](C)C(=O)NCC(=O)N1CCC[C@H]1C(=O)N[C@@H](CCCCN)C(=O)O [YDE-001] (H-[Hyp]GQEGLAGPK-OH)	more than 20%	more than 20%	
CC(C)C[C@H](NC(=O)CNC(=O)[C@H](C)NC(=O)[C@H](CCC(N)=O)NC(=O)CNC(=O)[C@@H]1C[C@@H](O)CN1)C(=O)N[C@@H](C)C(=O)NCC(=O)N1CCC[C@H]1C(=O)N[C@@H](CCCCN)C(=O)O [YDE-008] (H-[Hyp]GQAGLAGPK-OH)	more than 20%	more than 20%	
CC(C)C[C@H](NC(=O)[C@@H](NC(=O)[C@H](CC(=O)O)NC(=O)[C@H](CCC(N)=O)NC(=O)CNC(=O)[C@@H]1C[C@@H](O)CN1)C(C)C)C(=O)N[C@@H](C)C(=O)NCC(=O)N1CCC[C@H]1C(=O)N[C@@H](CCCCN)C(=O)O [YDE-015] (H-[Hyp]GQDVLAGPK-OH)	more than 20%	more than 20%	
CCC(C)[C@H](NC(=O)[C@H](CC(=O)O)NC(=O)[C@H](CCC(N)=O)NC(=O)CNC(=O)[C@@H]1C[C@@H](O)CN1)C(=O)N[C@@H](CC(C)C)C(=O)N[C@@H](C)C(=O)NCC(=O)N1CCC[C@H]1C(=O)N[C@@H](CCCCN)C(=O)O (stereo partly drawn) [YDE-016] (H-[Hyp]GQD[Ile(3ξ)]LAGPK-OH)	more than 20%	more than 20%	
CC(C)C[C@H](NC(=O)[C@H](CO)NC(=O)[C@H](CC(=O)O)NC(=O)[C@H](CCC(N)=O)NC(=O)CNC(=O)[C@@H]1C[C@@H](O)CN1)C(=O)N[C@@H](C)C(=O)NCC(=O)N1CCC[C@H]1C(=O)N[C@@H](CCCCN)C(=O)O [YDE-023] (H-[Hyp]GQDSLAGPK-OH)	more than 20%	more than 20%	
CC(C)C[C@H](NC(=O)CNC(=O)[C@H](CCO)NC(=O)[C@H](CCC(N)=O)NC(=O)CNC(=O)[C@@H]1C[C@@H](O)CN1)C(=O)N[C@@H](C)C(=O)NCC(=O)N1CCC[C@H]1C(=O)N[C@@H](CCCCN)C(=O)O [YDE-026] (H-[Hyp]GQ[hSer]GLAGPK-OH)	more than 20%	more than 20%	
CC(C)C[C@H](NC(=O)CNC(=O)[C@H](CC(C)C)NC(=O)[C@H](CCC(N)=O)NC(=O)CNC(=O)[C@@H]1C[C@@H](CO)CN1)C(=O)N[C@@H](C)C(=O)NCC(=O)N1CCC[C@H]1C(=O)N[C@@H](CCCCN)C(=O)O [YDE-038] (H-[X3]GQLGLAGPK-OH)			≤ 0.3 µM
CC(C)C[C@H](NC(=O)CNC(=O)[C@H](CC(C)C)NC(=O)[C@H](CCC(N)=O)NC(=O)CNC(=O)[C@@H]1C[C@@H](C)CN1)C(=O)N[C@@H](C)C(=O)NCC(=O)N1CCC[C@H]1C(=O)N[C@@H](CCCCN)C(=O)O [YDE-044] (H-[Pro(4R-Me)]GQLGLAGPK-OH)			≤ 0.3 µM
CC(C)C[C@H](NC(=O)CNC(=O)[C@H](CC(C)C)NC(=O)[C@H](CCC(N)=O)NC(=O)CNC(=O)[C@@H]1CC[C@@H](C)N1)C(=O)N[C@@H](C)C(=O)NCC(=O)N1CCC[C@H]1C(=O)N[C@@H](CCCCN)C(=O)O [YDE-045] (H-[X2]GQLGLAGPK-OH)			≤ 0.3 µM
CC(C)C[C@H](NC(=O)CNC(=O)[C@H](CC(C)C)NC(=O)[C@H](C)NC(=O)CNC(=O)[C@@H]1C[C@@H](O)CN1)C(=O)N[C@@H](C)C(=O)NCC(=O)N1CCC[C@H]1C(=O)N[C@@H](CCCCN)C(=O)O [YDE-049] (H-[Hyp]GALGLAGPK-OH)			≤ 0.3 µM
CC(C)C[C@H](NC(=O)CNC(=O)[C@H](CC(C)C)NC(=O)[C@H](CCC(N)=O)NC(=O)CNC(=O)[C@@H]1C[C@@H](O)CN1)C(=O)N[C@@H](C)C(=O)N[C@@H](C)C(=O)N1CCC[C@H]1C(=O)N[C@@H](CCCCN)C(=O)O [YDE-054] (H-[Hyp]GQLGLAAPK-OH)			≤ 0.3 µM
CC(C)C[C@H](NC(=O)CNC(=O)[C@H](CC(C)C)NC(=O)[C@H](CCC(N)=O)NC(=O)CNC(=O)[C@H]1C[C@H](O)CN1)C(=O)N[C@@H](C)C(=O)NCC(=O)N1CCC[C@H]1C(=O)N[C@@H](CCCCN)C(=O)O [YDE-057] (H-[dHyp]GQLGLAGPK-OH)			≤ 0.3 µM
CC(C)C[C@@H](NC(=O)CNC(=O)[C@@H](CC(C)C)NC(=O)[C@@H](CCC(N)=O)NC(=O)CNC(=O)[C@H]1C[C@H](O)CN1)C(=O)N[C@H](C)C(=O)NCC(=O)N1CCC[C@@H]1C(=O)N[C@H](CCCCN)C(=O)O [YDE-058] (H-[dHyp]G[dQ][dL]G[dL][dA]G[dP][dK]-OH)			≤ 0.3 µM
NC(=O)CC[C@H](NC(=O)CNC(=O)[C@@H]1C[C@@H](O)CN1)C(=O)N[C@H]1CCC(=O)NCCCC[C@@H](C(=O)NCC(=O)O)NC(=O)CNC1=O [YDE-059] (H-[Hyp]GQEGKG-OH; lactam 4-6)			≤ 0.3 µM
CC(C)C[C@@H](NC(=O)CNC(=O)[C@@H](CC(C)C)NC(=O)[C@@H](CCC(N)=O)NC(=O)CNC(=O)[C@H]1C[C@@H](O)CN1)C(=O)N[C@H](C)C(=O)NCC(=O)N1CCC[C@@H]1C(=O)N[C@H](CCCCN)C(=O)O [YDE-060] (H-[d(cisHyp)]G[dQ][dL]G[dL][dA]G[dP][dK]-OH)			≤ 0.3 µM

— patent US11613558B2, “Peptides and pharmaceutical compositions for treating eye diseases” (Yuyu Pharma, Inc., priority 2018, dated 2023)
